Here are results for two molecules from article PMC12005498.

The target of the assay is Semliki Forest virus (SFV) nsP3 fused with the biotin ligase miniTurbo (nsP3-mTB) (Semliki Forest virus). The experiment in a line: proximity labelling.

These are yes or no findings as the source states them, for the method shown. Binding seen in cells or lysates may run through a third protein. A yes stands for co-enrichment or nearness to the bait. Other partners may have been found.

B1: RBM22, human (protein, UniProt Q9NW64 1-420)
chain: MATSLGSNTYNRQNWEDADFPILCQTCLGENPYIRMTKEKYGKECKICARPFTVFRWCPGVRMRFKKTEVCQTCSKLKNVCQTCLLDLEYGLPIQVRDAGLSFKDDMPKSDVNKEYYTQNMEREISNSDGTRPVGMLGKATSTSDMLLKLARTTPYYKRNRPHICSFWVKGECKRGEECPYRHEKPTDPDDPLADQNIKDRYYGINDPVADKLLKRASTMPRLDPPEDKTITTLYVGGLGDTITETDLRNHFYQFGEIRTITVVQRQQCAFIQFATRQAAEVAAEKSFNKLIVNGRRLNVKWGRSQAARGKEKEKDGTTDSGIKLEPVPGLPGALPPPPAAEEEASANYFNLPPSGPPAVVNIALPPPPGIAPPPPPGFGPHMFHPMGPPPPFMRAPGPIHYPSQDPQRMGAHAGKHSSP
For the molecule B1, the binding result is listed as “binds”.

B2: NUFIP2, human (protein, UniProt Q7Z417 1-695)
chain: MEEKPGQPQPQHHHSHHHPHHHPQQQQQQPHHHHHYYFYNHSHNHHHHHHHQQPHQYLQHGAEGSPKAQPKPLKHEQKHTLQQHQETPKKKTGYGELNGNAGEREISLKNLSSDEATNPISRVLNGNQQVVDTSLKQTVKANTFGKAGIKTKNFIQKNSMDKKNGKSYENKSGENQSVDKSDTIPIPNGVVTNNSGYITNGYMGKGADNDGSGSESGYTTPKKRKARRNSAKGCENLNIVQDKIMQQETSVPTLKQGLETFKPDYSEQKGNRVDGSKPIWKYETGPGGTSRGKPAVGDMLRKSSDSKPGVSSKKFDDRPKGKHASAVASKEDSWTLFKPPPVFPVDNSSAKIVPKISYASKVKENLNKTIQNSSVSPTSSSSSSSSTGETQTQSSSRLSQVPMSALKSVTSANFSNGPVLAGTDGNVYPPGGQPLLTTAANTLTPISSGTDSVLQDMSLTSAAVEQIKTSLFIYPSNMQTMLLSTAQVDLPSQTDQQNLGDIFQNQWGLSFINEPSAGPETVTGKSSEHKVMEVTFQGEYPATLVSQGAEIIPSGTEHPVFPKAYELEKRTSPQVLGSILKSGTTSESGALSLEPSHIGDLQKADTSSQGALVFLSKDYEIESQNPLASPTNTLLGSAKEQRYQRGLERNDSWGSFDLRAAIVYHTKEMESIWNLQKQDPKRIITYNEAMDSPDQ
Turning to B2, the binding result is “binds”.
